Measured values from article PMC3682968.
Results are given in words; binding and its absence hold for the method and conditions named. In cells and extracts the contact can be indirect. Some results given as binding are weak or reduced against the parent protein; the word gives no strength. Sequences can lack the tags named with a protein.

Sequences of proteins named here, by UniProt entry; tags and fusion partners are left off.
UniProt P68104: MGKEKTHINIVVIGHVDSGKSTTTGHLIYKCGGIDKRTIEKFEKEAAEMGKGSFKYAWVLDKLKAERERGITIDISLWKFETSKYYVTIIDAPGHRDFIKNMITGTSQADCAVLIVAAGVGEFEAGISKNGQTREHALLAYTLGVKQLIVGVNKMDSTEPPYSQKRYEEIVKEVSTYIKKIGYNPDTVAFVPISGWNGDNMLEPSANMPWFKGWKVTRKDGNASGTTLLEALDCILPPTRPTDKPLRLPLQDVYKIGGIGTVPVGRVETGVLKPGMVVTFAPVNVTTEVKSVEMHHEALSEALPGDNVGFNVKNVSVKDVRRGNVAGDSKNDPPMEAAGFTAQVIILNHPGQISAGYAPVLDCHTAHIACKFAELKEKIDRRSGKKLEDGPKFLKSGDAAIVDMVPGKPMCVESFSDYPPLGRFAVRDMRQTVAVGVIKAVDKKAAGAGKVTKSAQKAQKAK

B1: HA-TAp73α (protein, UniProt O15350 1-636)
chain: MAQSTATSPDGGTTFEHLWSSLEPDSTYFDLPQSSRGNNEVVGGTDSSMDVFHLEGMTTSVMAQFNLLSSTMDQMSSRAASASPYTPEHAASVPTHSPYAQPSSTFDTMSPAPVIPSNTDYPGPHHFEVTFQQSSTAKSATWTYSPLLKKLYCQIAKTCPIQIKVSTPPPPGTAIRAMPVYKKAEHVTDVVKRCPNHELGRDFNEGQSAPASHLIRVEGNNLSQYVDDPVTGRQSVVVPYEPPQVGTEFTTILYNFMCNSSCVGGMNRRPILIIITLEMRDGQVLGRRSFEGRICACPGRDRKADEDHYREQQALNESSAKNGAASKRAFKQSPPAVPALGAGVKKRRHGDEDTYYLQVRGRENFEILMKLKESLELMELVPQPLVDSYRQQQQLLQRPSHLQPPSYGPVLSPMNKVHGGMNKLPSVNQLVGQPPPHSSAATPNLGPVGPGMLNNHGHAVPANGEMSSSHSAQSMVSGSHCTPPPPYHADPSLVSFLTGLGCPNCIEYFTSQGLQSIYHLQNLTIEDLGALKIPEQYRMTIWRGLQDLKQGHDYSTAQQLLRSSNAATISIGGSGELQRQRVMEAVHFRVRHTITIPNRGGPGGGPDEWADFGFDLPDCKARKQPIKEEFTEAEIH
B2: Flag-TAp63α (protein, UniProt Q9H3D4-1 1-680)
chain: MNFETSRCATLQYCPDPYIQRFVETPAHFSWKESYYRSTMSQSTQTNEFLSPEVFQHIWDFLEQPICSVQPIDLNFVDEPSEDGATNKIEISMDCIRMQDSDLSDPMWPQYTNLGLLNSMDQQIQNGSSSTSPYNTDHAQNSVTAPSPYAQPSSTFDALSPSPAIPSNTDYPGPHSFDVSFQQSSTAKSATWTYSTELKKLYCQIAKTCPIQIKVMTPPPQGAVIRAMPVYKKAEHVTEVVKRCPNHELSREFNEGQIAPPSHLIRVEGNSHAQYVEDPITGRQSVLVPYEPPQVGTEFTTVLYNFMCNSSCVGGMNRRPILIIVTLETRDGQVLGRRCFEARICACPGRDRKADEDSIRKQQVSDSTKNGDGTKRPFRQNTHGIQMTSIKKRRSPDDELLYLPVRGRETYEMLLKIKESLELMQYLPQHTIETYRQQQQQQHQHLLQKQTSIQSPSSYGNSSPPLNKMNSMNKLPSVSQLINPQQRNALTPTTIPDGMGANIPMMGTHMPMAGDMNGLSPTQALPPPLSMPSTSHCTPPPPYPTDCSIVSFLARLGCSSCLDYFTTQGLTTIYQIEHYSMDDLASLKIPEQFRHAIWKGILDHRQLHEFSSPSHLLRTPSSASTVSVGSSETRGERVIDAVRFTLRQTISFPPRDEWNDFNFDMDARRNKQQRIKEEGE

Tests used:
[1] = target: T7-eEF1A1 (eukaryotic translation elongation factor 1-alpha 1) (UniProt P68104); test: co-IP; co-transfected HeLa (Fig. 1A) or SaOS-2 treated with camptothecin 0.2 µM for 18 hours (Fig. 1B); whole cell extracts in EBC buffer (50 mM Tris pH 8, 120 mM NaCl, 0.5% Nonidet P-40) immunoprecipitated with anti-T7 antibody and protein A-sepharose, 2 h at 4°C; immunoblot with anti-HA
[2] = target: T7-eEF1A1 (eukaryotic translation elongation factor 1-alpha 1) (UniProt P68104); test: co-IP; co-transfected SaOS-2 cells, whole cell extracts immunoprecipitated with anti-T7 antibody; data not shown
[3] = target: HA-eEF1A1 (eukaryotic translation elongation factor 1-alpha 1) (UniProt P68104); test: co-IP; co-transfected HeLa cells treated with camptothecin (0.2 µM) for 18 hours; whole cell extracts immunoprecipitated with anti-HA (12CA5) antibody; immunoblot with anti-Flag and anti-HA (HA.11)

| Binder | binding [1] | binding [2] | binding [3] |
| --- | --- | --- | --- |
| B1 | binds | binds |  |
| B2 |  |  | binds |
